From PubChem BioAssay (Tox21)
Several values for one entry are separate records, joined by “and”; a condition that tells them apart may be missing. Equal values may be shown once. Inconclusive results, whose numbers are uncertain, are shown with a selection of clear calls. Where the call is inconclusive, the potency comes from a doubtful curve fit. Activity calls are given as the source filed them. Calls follow the shape of the full dose curve.

Target: Beta-2 adrenergic receptor (Homo sapiens) (UniProt P07550)
Assay: Adrenergic beta2 receptor (ADRB2) small molecule agonists, cell-based qHTS assay (AID 1963593)
Conditions: CHO-ADRB2 cells, cAMP HTRF, 30 min; activation: at 92.4 µM (top of the series) unless noted
Description: National Center for Advancing Translational Sciences [NCATS]
Division of Preclinical Innovation [DPI]
U.S. Environmental Protection Agency [EPA]
National Institutes of Environmental Health Sciences [NIEHS]
National Toxicology Program [NTP]
U.S. Food and Drug Administration [FDA]
Beta adrenergic receptors (Beta-ARs) belong to the G-protein coupled receptor (GPCR) superfamily, includes three subtypes - beta1, beta2, and beta3. Beta1-AR is the predominant receptor subtype expressed in the heart, and beta2-AR is expressed in the kidney, lung, blood vessel and in the heart, and beta3 is found in the adipocytes. Beta1 and 2 ARs couple to Gs protein and elevate cyclic adenosine mono phosphate (cAMP), which activates protein kinase A and leads to the downstream signaling responsible for the physiological actions. Beta-AR agonists or antagonists are the most prescribed therapeutic agents for heart failure and asthma, and these were one of the first target receptors for the rational drug design. Tox21 10K compound library was screened using the cAMP-Gs dynamic assay (Cisbio Bioassays, Shelton, CT) to identify agonists/antagonists of the Gs-coupled human adrenergic, beta2 receptor (ADRB2) in the CHO-ADRB2 cell line (Codex BioSolutions, Inc. Gaithersburg, MD), which stably over-expresses ADRB2. The principle of cAMP-Gs dynamic assay is based on HTRF technology, which facilitates the fluorescence resonance energy transfer (FRET) between donor Europium cryptate and acceptor d2-labeled cAMP. The cAMP generated within cells competes with the red acceptor, d2-labled cAMP, for binding to the monoclonal anti-cAMP-cryptate (Europium donor). An increase in intracellular cAMP leads to the disruption of FRET signal, and the signal is inversely proportional to the cAMP concentration. Isoproterenol HCl (Sigma-Aldrich, St. Louis, MO) was used as a positive control in the screening.
Tox21 Assay Protocol Summary:
CHO-ADRB2 cells were dispensed at 1,000/well in 4uL assay medium into white/solid 1536-well plates (Greiner Bio-One North America Inc., Monroe, NC) using a Multidrop Combi dispenser (ThermoFisher Scientific, Waltham, MA). The assay plates were incubated at 37C and 5% CO2 for an overnight (18-20hr). Then positive control and test compounds dissolved in DMSO were transferred to the assay plates at 23nL using a Pintool station (Wako, San Diego, CA). Following the compound and positive control transfer, 1uL stimulation mix containing 100uM IBMX and 25uM Ro-20-1724 was added to each well of the assay plates using BioRAPTR Flying Reagent Dispenser (FRD, Beckman Coulter, Brea, CA). The assay plates were incubated at room temperature for 0.5hr. Then 2.5ul each d2-labled cAMP and anti-cAMP-cryptate solutions were added separately to each well of the assay plates using an FRD and the assay plates were incubated at room temperature for 1hr.
% is scaled to controls: 0 for no effect and ±100 for the full control effect; potency is read from the fitted curve at half-maximal effect.

Compound | Potency | activation
Cc1coc2c1CCC(C)C2 (stereo not given) | inconclusive: 63.1 µM [inhibitor, partial curve, poor fit] | –
CCNc1nc(NCC)nc(SC)n1 | – | inactive: 3.2%
CCCCCOC(=O)c1ccccc1C(=O)OCCCCC | – | inconclusive: 4.98%
C=CCOC(Cn1ccnc1)c1ccc(Cl)cc1Cl (stereo not given) | – | inconclusive: -23.6%
c1cc[c]([Hg][c]2ccccc2)cc1 | inconclusive: 13.7 µM [activator, partial curve, poor fit] | –
C1CCC(NC2CCCCC2)CC1 | inconclusive: 79.7 µM [inhibitor, partial curve, poor fit] and inactive and inconclusive: 10.6 µM [inhibitor, partial curve, poor fit] | –
CCOP(=S)(OCC)Oc1ccc([N+](=O)[O-])cc1 | inconclusive: 2.46 µM [inhibitor, partial curve, poor fit] and inactive | –
CCNc1nc(Cl)nc(NC(C)(C)C#N)n1 | – | inconclusive: 3.8%
COc1ccccc1N | inconclusive: 243 nM [inhibitor] and inactive and inconclusive: 15.4 µM [inhibitor, partial curve, poor fit] | –
Oc1ccccc1Br | – | inactive: -14.3%
CC(=NC#N)N(C)Cc1ccc(Cl)nc1 | – | inactive: 14.9%
CC(C)N(CCC(C(N)=O)(c1ccccc1)c1ccccn1)C(C)C (stereo not given) | – | inactive: -6.12% [at 42.5 µM]
C=Cc1cccc(CCl)c1 | – | inconclusive: 3.61% [at 240 µM]
CNNC | inconclusive: 20 µM [activator, full curve, poor fit] | –
CNC(=O)O/N=C/C(C)(C)SC | – | inconclusive: 5.47%
N#CN=C(N)N | – | inconclusive: 20.6%
O=[N+]([O-])c1cccc(CCl)c1 | – | inconclusive: 7.52%

Compound | Potency | activation
C[C@H](CN1CCOCC1)C(C(=O)N1CCCC1)(c1ccccc1)c1ccccc1 | – | inactive: -0.757%
C[C@]12CC[C@H](O)C[C@H]1CC[C@@H]1[C@@H]2C[C@@H](O)[C@]2(C)[C@@H](C3=CC(=O)OC3)CC[C@]12O | – | inconclusive: -36.7%
OCCCl | – | inactive: 3.69%
CN1[C@@H]2CC[C@H]1CC(OC(=O)c1cc(Cl)cc(Cl)c1)C2 (stereo not given in full) | inconclusive: 29.8 µM [inhibitor, partial curve, poor fit] | –
CCOP(=S)(OCC)OP(=S)(OCC)OCC | inactive and inconclusive: 243 nM [inhibitor, partial curve, poor fit] | –
CC(Cl)Cl | inconclusive: 23.3 µM [inhibitor, partial curve, poor fit] | –
ClC1=C(Cl)[C@]2(Cl)[C@@H]3[C@H]4C[C@H]([C@@H]5O[C@H]45)[C@@H]3[C@@]1(Cl)C2(Cl)Cl | – | inconclusive: 34.6%
CC(Cl)CCl (stereo not given) | inconclusive: 76.7 µM [inhibitor, single point] | –
CN(C)CCC#N | inconclusive: 628 nM [inhibitor, partial curve, poor fit] and inconclusive: 545 nM [inhibitor, single point] | –
C=CC(C)(CCC=C(C)C)OC(=O)c1ccccc1N (stereo not given) | – | inconclusive: -24.3%
CCSC(C)CC1CC(=O)C(/C(CC)=N/OC/C=C/Cl)=C(O)C1 (stereo not given) | – | inactive: 14.3% [at 42.5 µM]
Cc1c(COC(=O)[C@@H]2[C@H](/C=C(\Cl)C(F)(F)F)C2(C)C)cccc1-c1ccccc1 | – | inconclusive: 9.5%
O=NN1CCCCCCC1 | – | inconclusive: 7.56%
Cc1c(F)c(F)c(COC(=O)C2C(/C=C(\Cl)C(F)(F)F)C2(C)C)c(F)c1F (stereo not given) | – | inconclusive: 22.7%
COc1nc(C)nc(NC(=O)NS(=O)(=O)c2ccccc2Cl)n1 | – | inconclusive: -18.8%
O=c1ccc(=O)[nH][nH]1 | – | inconclusive: 7.89%

Given with tabs: entries from further up
Compound	Potency	activation
C[C@]12CC[C@H](O)C[C@H]1CC[C@@H]1[C@@H]2C[C@@H](O)[C@]2(C)[C@@H](C3=CC(=O)OC3)CC[C@]12O	–	inconclusive: -36.7%
OCCCl	–	inactive: 3.69%
CN1[C@@H]2CC[C@H]1CC(OC(=O)c1cc(Cl)cc(Cl)c1)C2 (stereo not given in full)	inconclusive: 29.8 µM [inhibitor, partial curve, poor fit]	–
CCOP(=S)(OCC)OP(=S)(OCC)OCC	inactive and inconclusive: 243 nM [inhibitor, partial curve, poor fit]	–
CC(Cl)Cl	inconclusive: 23.3 µM [inhibitor, partial curve, poor fit]	–
ClC1=C(Cl)[C@]2(Cl)[C@@H]3[C@H]4C[C@H]([C@@H]5O[C@H]45)[C@@H]3[C@@]1(Cl)C2(Cl)Cl	–	inconclusive: 34.6%
CC(Cl)CCl (stereo not given)	inconclusive: 76.7 µM [inhibitor, single point]	–
CN(C)CCC#N	inconclusive: 628 nM [inhibitor, partial curve, poor fit] and inconclusive: 545 nM [inhibitor, single point]	–
C=CC(C)(CCC=C(C)C)OC(=O)c1ccccc1N (stereo not given)	–	inconclusive: -24.3%

Same assay, conditions: CHO-ADRB2 cells, cAMP HTRF, 30 min; at 42.5 µM (top of the series)

Compound | activation
C=CCOC(Cn1ccnc1)c1ccc(Cl)cc1Cl (stereo not given) | inactive: 19.9%

Same assay, conditions: CHO-ADRB2 cells, cAMP HTRF, 30 min; at 92.4 µM (top of the series)

Compound | activation
CCCCCOC(=O)c1ccccc1C(=O)OCCCCC | inactive: 9.42%
C=CCOC(Cn1ccnc1)c1ccc(Cl)cc1Cl (stereo not given) | inactive: -6.38%
CCNc1nc(Cl)nc(NC(C)(C)C#N)n1 | inactive: 0.444%
N#CN=C(N)N | inactive: 1.75%
Cc1c(COC(=O)[C@@H]2[C@H](/C=C(\Cl)C(F)(F)F)C2(C)C)cccc1-c1ccccc1 | inactive: 0.965%
O=c1ccc(=O)[nH][nH]1 | inactive: 3.66%
